Results as given in the supplement of paper PMC10849652.
This is one part of the list.

Chains of the proteins cited; added tags and fusions are not shown. Lines headed by an entry give the natural chain unless they say otherwise; changes in a name come on top.
UniProt Q9P2J5: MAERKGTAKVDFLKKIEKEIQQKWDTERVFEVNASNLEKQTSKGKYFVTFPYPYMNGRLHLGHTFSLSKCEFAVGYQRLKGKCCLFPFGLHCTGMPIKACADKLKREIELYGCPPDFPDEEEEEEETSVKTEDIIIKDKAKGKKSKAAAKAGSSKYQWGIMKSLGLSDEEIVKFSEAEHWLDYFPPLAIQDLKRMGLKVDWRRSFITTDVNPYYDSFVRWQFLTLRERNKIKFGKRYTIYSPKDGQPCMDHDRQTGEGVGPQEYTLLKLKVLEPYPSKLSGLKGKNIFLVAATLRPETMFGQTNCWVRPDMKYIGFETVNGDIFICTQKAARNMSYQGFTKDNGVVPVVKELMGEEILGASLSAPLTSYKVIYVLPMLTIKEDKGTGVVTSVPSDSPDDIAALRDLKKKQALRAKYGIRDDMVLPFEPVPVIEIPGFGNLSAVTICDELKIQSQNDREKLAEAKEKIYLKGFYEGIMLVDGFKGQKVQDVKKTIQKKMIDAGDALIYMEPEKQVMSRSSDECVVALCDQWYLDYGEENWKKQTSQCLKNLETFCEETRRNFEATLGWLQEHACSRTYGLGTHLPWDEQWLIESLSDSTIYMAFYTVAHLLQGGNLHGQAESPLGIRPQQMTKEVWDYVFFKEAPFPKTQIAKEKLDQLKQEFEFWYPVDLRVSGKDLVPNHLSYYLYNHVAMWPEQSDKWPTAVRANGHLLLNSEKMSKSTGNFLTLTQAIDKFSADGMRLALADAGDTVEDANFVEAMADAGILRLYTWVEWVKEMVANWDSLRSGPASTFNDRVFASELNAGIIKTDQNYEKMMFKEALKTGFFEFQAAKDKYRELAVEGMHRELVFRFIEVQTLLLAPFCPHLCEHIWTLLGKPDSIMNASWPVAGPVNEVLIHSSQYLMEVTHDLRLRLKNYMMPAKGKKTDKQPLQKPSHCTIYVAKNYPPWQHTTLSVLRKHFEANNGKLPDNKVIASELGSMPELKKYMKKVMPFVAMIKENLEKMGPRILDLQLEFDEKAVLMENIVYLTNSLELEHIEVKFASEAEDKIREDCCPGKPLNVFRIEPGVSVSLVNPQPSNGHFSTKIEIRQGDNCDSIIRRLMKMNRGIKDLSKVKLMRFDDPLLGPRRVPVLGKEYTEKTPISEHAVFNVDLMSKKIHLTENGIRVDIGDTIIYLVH
UniProt Q6YP21: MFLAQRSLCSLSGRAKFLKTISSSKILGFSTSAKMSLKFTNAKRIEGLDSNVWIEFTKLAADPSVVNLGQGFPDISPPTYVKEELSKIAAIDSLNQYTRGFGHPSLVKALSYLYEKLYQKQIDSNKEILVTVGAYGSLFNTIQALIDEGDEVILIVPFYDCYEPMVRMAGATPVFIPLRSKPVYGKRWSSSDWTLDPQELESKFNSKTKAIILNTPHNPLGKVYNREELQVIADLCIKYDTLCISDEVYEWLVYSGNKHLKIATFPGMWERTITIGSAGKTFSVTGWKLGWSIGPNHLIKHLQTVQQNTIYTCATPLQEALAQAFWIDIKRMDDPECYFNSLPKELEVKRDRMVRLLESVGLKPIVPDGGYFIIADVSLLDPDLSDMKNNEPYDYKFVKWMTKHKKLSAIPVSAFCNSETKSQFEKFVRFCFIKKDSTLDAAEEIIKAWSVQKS
UniProt Q9H008: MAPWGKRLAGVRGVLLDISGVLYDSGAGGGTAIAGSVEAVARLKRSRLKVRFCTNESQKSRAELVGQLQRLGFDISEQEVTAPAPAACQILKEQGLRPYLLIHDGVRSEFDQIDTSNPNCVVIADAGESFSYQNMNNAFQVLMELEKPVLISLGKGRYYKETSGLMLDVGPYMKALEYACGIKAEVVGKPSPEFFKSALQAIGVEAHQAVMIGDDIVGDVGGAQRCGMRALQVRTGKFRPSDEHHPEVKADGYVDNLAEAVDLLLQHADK
UniProt O43813, whole entry, looked up: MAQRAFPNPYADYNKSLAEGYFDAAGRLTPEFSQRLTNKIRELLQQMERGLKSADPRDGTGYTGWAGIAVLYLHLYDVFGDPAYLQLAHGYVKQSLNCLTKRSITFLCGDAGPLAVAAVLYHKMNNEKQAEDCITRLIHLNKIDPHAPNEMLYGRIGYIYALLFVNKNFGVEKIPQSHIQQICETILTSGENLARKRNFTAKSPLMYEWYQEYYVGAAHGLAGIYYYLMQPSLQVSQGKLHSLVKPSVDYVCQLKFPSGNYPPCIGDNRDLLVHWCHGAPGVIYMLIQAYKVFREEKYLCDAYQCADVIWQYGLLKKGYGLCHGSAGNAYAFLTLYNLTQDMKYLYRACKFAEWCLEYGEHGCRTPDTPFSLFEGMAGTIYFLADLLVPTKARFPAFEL
UniProt Q96EM0: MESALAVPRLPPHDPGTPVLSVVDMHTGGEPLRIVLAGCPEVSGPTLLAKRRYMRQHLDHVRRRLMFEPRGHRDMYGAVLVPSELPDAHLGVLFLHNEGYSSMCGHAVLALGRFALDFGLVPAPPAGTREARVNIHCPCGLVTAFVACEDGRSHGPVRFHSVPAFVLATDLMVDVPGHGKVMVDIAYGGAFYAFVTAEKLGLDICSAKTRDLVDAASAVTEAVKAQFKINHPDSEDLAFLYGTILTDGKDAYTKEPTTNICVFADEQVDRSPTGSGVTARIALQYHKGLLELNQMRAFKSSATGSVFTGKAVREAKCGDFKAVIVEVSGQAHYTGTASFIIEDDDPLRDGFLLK
UniProt Q15031: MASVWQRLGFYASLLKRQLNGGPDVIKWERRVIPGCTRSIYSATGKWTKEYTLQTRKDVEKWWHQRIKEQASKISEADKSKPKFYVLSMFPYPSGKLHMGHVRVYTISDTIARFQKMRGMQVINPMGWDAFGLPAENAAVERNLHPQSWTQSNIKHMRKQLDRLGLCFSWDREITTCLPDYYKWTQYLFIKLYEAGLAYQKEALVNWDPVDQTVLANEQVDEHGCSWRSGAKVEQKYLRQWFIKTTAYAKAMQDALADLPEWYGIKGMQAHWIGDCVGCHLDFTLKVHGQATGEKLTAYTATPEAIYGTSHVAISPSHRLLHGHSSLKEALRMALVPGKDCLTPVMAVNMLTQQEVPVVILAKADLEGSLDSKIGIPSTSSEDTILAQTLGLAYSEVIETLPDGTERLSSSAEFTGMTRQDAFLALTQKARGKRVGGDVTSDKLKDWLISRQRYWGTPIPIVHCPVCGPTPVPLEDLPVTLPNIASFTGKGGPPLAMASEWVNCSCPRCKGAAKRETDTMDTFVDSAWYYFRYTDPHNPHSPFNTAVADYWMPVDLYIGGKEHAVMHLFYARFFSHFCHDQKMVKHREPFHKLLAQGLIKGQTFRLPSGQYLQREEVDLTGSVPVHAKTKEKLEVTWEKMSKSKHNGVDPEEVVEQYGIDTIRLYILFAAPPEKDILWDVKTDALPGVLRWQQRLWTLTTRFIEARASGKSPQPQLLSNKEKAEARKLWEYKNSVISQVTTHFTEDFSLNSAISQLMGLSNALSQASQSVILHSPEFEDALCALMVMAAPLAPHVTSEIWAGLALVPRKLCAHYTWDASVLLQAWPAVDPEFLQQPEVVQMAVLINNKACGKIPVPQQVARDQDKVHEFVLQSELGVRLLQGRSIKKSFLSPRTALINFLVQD
UniProt Q9BRT6: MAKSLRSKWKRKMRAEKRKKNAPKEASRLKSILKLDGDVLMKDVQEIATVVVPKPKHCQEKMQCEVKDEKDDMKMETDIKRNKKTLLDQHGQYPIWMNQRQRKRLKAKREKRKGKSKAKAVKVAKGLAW
UniProt Q53H82: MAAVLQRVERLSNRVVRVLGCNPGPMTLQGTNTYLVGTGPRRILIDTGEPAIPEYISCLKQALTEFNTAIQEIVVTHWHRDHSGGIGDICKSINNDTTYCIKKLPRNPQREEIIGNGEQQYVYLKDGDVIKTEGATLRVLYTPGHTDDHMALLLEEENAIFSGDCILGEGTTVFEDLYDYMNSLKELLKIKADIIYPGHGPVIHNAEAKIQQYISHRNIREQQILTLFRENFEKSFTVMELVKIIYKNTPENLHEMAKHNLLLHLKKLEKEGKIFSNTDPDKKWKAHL
UniProt Q86U70: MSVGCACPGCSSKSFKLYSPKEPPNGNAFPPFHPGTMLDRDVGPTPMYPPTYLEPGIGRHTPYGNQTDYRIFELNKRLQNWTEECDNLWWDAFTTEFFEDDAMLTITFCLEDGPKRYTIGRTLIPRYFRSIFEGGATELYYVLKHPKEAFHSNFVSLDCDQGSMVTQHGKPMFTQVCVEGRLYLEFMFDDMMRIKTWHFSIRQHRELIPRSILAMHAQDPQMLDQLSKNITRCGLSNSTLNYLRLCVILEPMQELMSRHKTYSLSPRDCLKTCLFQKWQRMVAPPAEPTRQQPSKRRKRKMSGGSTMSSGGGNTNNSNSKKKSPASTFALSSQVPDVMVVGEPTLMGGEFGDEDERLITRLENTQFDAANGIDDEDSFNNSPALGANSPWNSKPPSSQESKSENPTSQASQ
UniProt P18858, whole entry, looked up: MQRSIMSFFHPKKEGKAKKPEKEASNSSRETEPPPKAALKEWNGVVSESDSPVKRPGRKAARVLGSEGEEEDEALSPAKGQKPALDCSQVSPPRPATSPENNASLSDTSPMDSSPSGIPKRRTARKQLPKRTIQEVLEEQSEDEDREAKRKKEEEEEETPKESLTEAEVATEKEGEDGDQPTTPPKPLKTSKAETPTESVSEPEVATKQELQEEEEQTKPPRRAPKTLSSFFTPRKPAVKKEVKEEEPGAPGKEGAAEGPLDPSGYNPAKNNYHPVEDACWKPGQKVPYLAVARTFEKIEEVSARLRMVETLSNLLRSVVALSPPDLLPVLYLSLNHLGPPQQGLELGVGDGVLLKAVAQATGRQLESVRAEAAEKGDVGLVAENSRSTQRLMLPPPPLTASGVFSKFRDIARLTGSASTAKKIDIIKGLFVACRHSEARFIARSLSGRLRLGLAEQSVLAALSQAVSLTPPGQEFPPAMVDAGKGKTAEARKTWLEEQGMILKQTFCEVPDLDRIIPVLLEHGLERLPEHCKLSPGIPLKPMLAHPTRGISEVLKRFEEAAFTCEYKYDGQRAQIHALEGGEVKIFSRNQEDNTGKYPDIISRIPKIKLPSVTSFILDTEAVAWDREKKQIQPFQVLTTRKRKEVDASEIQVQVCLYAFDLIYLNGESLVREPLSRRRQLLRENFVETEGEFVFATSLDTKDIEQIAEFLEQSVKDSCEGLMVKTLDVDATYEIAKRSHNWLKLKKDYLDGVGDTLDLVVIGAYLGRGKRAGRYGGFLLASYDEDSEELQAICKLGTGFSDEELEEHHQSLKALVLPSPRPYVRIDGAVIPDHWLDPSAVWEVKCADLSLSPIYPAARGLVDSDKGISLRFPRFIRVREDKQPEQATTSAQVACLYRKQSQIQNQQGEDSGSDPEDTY
UniProt O95202: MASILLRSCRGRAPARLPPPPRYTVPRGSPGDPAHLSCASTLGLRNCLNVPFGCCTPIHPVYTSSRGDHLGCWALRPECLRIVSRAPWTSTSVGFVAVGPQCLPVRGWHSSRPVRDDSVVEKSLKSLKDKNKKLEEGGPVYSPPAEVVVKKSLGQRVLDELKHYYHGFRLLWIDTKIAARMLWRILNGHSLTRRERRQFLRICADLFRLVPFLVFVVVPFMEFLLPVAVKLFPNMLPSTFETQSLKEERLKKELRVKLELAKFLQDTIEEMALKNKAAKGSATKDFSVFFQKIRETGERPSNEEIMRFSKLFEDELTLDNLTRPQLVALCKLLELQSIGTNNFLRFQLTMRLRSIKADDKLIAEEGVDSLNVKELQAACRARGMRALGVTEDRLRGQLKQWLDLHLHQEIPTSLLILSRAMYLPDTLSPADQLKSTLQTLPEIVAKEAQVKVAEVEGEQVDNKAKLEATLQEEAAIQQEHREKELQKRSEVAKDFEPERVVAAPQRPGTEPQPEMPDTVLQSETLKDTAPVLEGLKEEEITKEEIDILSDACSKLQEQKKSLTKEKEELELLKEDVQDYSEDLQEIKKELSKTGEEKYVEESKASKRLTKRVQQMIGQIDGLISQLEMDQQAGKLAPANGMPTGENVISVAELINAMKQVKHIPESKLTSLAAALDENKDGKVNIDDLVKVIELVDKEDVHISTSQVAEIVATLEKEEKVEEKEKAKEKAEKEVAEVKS
UniProt P07195, whole entry, looked up: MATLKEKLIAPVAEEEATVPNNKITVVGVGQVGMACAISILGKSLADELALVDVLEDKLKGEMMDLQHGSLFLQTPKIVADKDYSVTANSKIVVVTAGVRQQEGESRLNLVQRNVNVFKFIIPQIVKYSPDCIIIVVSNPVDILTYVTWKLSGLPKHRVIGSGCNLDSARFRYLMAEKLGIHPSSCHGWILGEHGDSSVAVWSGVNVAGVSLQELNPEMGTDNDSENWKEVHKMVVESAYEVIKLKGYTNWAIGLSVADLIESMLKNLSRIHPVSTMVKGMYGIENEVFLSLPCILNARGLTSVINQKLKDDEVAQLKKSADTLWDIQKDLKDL
UniProt Q8TCA0: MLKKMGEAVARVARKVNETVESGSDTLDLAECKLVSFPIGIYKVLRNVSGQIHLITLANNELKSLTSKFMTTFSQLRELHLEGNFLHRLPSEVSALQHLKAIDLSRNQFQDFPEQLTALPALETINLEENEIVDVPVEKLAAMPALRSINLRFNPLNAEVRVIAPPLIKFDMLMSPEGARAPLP

These targets were tested with CN1CCc2c(c3ccccc3n2Cc2ccc(C(=O)NO)cc2)C1 [Tubastatin A] (assay: log2 fold change, soluble protein after heating vs DMSO (PISA); higher = thermal stabilisation; K562 cells, 10 uM, 30 min; active = over 0.2 and 3.5 SD of the protein, either way, in both replicates (recomputed)).
In short: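 K562 cells (2×10^6 cells/mL) were treated with 10 μM compound for 30 min, and aliquots were heated for 3 min over 48°C-58°C. Pooled aliquots were extracted in PBS with 0.5% NP-40 at 4°C, and the supernatant after 21,000xg for 90 min was measured by TMTpro 16plex LC-MS/MS with channel sums equalised. Reported thermal stability, relative to control samples and from duplicates, is a log2 fold change.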

log2 fold change, inactive:
LARS (UniProt Q9P2J5) 0.011
KYAT3 (UniProt Q6YP21) -0.041
LAMTOR1 (UniProt Q6IAA8) 0.059
LHPP (UniProt Q9H008) 0.022
LAP3 (UniProt P28838) 0.094
LANCL1 (UniProt O43813) -0.005
LASP1 (UniProt Q14847) -0.027
LRRC47 (UniProt Q8N1G4) -0.001
L3HYPDH (UniProt Q96EM0) -0.023
LRRC57 (UniProt Q8N9N7) -0.014
LIMS1 isoform 3 (UniProt P48059) 0.022
LARS2 (UniProt Q15031) -0.006
LLPH (UniProt Q9BRT6) 0.265
LACTB2 (UniProt Q53H82) -0.023
LCMT1 (UniProt Q9UIC8) -0.037
LDB1 (UniProt Q86U70) -0.019
LENG1 (UniProt Q96BZ8) 0.004
LIG1 (UniProt P18858) 0.102
LETM1 (UniProt O95202) -0.031
LDHB (UniProt P07195) -0.013
LMAN2L isoform 2 (UniProt Q9H0V9) 0.014
LPCAT1 (UniProt Q8NF37) 0.152
LRRC20 (UniProt Q8TCA0) 0.08

Fetched one by one from above (2):
log2 fold change, inactive:
LIMS1 isoform 3 (UniProt P48059) 0.022
LIG1 (UniProt P18858) 0.102
